Measured values published in paper PMC11161108.
Results are given in words; binding and its absence hold for the method and conditions named. Some results given as binding are weak or reduced against the parent protein; the word gives no strength.

Chains of the proteins cited; added tags and fusions are not shown. Residues count along the entry.
UniProt P01591, residues 23-159: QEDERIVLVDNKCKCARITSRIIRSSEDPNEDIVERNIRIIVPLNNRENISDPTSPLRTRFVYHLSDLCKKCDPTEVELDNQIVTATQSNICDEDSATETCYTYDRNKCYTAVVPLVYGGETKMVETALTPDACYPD

Molecular target: human joining chain (J-chain) (human) (UniProt P01591)
Test: non-reducing SDS-PAGE and Western blot (disulfide-linked assembly); day-7 culture media of HEK293 cells transfected with one, two or three subunit constructs; LDS sample buffer with 2 mM N-ethylmaleimide, no reducing agent, 75°C 5 min; Coomassie or blots with anti-IgM (H+L), anti-λLC or anti-JC; only covalent (disulfide) links survive the SDS

human joining chain (J-chain) (from UniProt P01591 23-159)
binding: binds
